Test results as given in publication PMC10394028.
These are yes or no findings as the source states them, for the method shown. In cells and extracts the contact can be indirect. Some results given as binding are weak or reduced against the parent protein; the word gives no strength. Tags and fused reporters may be left off the sequences shown.

Protein sequences, listed by entry. Tags and fused reporters are not part of them.
UniProt Q13547: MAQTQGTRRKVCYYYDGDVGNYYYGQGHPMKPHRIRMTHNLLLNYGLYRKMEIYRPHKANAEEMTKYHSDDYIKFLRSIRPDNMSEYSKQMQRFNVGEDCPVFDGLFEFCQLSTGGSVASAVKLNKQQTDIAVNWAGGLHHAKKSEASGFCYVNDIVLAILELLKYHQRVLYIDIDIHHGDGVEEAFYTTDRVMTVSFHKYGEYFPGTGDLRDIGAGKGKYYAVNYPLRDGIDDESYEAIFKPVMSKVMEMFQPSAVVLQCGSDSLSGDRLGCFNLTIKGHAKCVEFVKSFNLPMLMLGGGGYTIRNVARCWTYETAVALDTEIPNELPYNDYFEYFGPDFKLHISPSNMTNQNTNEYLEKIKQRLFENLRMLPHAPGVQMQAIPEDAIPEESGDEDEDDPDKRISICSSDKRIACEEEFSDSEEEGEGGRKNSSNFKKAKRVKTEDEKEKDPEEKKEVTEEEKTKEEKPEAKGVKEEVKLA

Molecular target: T1, FLAG-tagged TRIB1 (human) (UniProt Q96RU8)
T1 sequence: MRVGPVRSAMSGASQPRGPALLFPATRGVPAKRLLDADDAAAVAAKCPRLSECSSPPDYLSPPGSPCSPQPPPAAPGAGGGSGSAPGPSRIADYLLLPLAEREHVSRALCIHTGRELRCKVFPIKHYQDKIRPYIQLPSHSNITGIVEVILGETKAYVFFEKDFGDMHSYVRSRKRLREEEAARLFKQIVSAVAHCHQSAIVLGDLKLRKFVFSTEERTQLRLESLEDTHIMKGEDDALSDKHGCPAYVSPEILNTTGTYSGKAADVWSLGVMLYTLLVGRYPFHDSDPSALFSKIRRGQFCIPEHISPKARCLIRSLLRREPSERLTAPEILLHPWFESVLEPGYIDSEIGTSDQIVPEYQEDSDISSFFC
Assay: co-IP; FLAG-tagged TRIB1 precipitated (FLAG antibody, Pierce Co-IP kit, or anti-DYKDDDDK magnetic agarose beads) from total lysates of stable GBM cells (T08-387, LN18, GBM30, 3359) in the kit's IP lysis buffer; eluate blotted; in one panel after COP1 knockdown by shRNA

| binding | Substance |
| --- | --- |
| binds | HDAC1 (from UniProt Q13547 1-482) |
| binds | p53 (wild type, T08-387 cells) (from UniProt P04637 1-393) |
